# Source: the supplement of paper PMC8728848
# Some of the results follow.
# Columns and labels:
# Test in all cases: glycan array binding signal (z-score within array); higher = stronger binding
# Conditions in all cases: glycan notation: IUPAC condensed, linker removed
# [1] = molecular target: GlcNAc(b1-3)Gal(b1-4)GlcNAc(b1-3)Gal(b1-4)GlcNAc(b1-3)GalNAc
# Procedure, shortened: (§1)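 The binding signal is a Z-score computed within each array. Data were drawn from 3228 arrays in the Consortium for Functional Glycomics database, restricted to those with a known protein sequence. Scores were averaged over arrays of the same protein sequence at different concentrations or buffers, and over linkers, and negative values can be taken as non-binding.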
# [2] = molecular target: GlcNAc(b1-3)Gal(b1-4)GlcNAc(b1-3)GalNAc
# Procedure, shortened: as §1
# [3] = molecular target: GlcNAc(b1-3)Gal(b1-4)GlcNAc(b1-3)[GlcNAc(b1-3)Gal(b1-4)GlcNAc(b1-3)]GalNAc
# Procedure, shortened: as §1
# [4] = molecular target: GlcNAc(b1-3)Gal(b1-4)GlcNAc(b1-6)[Gal(b1-3)]GalNAc
# Procedure, shortened: as §1
# [5] = molecular target: GlcNAc(b1-3)Gal(b1-4)GlcNAc(b1-6)[GlcNAc(b1-3)Gal(b1-3)]GalNAc
# Procedure, shortened: as §1
# [6] = molecular target: GlcNAc(b1-3)Gal(b1-4)GlcNAc(b1-6)[GlcNAc(b1-3)]Gal(b1-4)GlcNAc
# Procedure, shortened: as §1
# [7] = molecular target: GlcNAc(b1-3)GalNAc
# Procedure, shortened: as §1
# [8] = molecular target: GlcNAc(b1-3)Man
# Procedure, shortened: as §1
# [9] = molecular target: GlcNAc(b1-3)[GlcNAc(b1-4)][GlcNAc(b1-6)]GlcNAc
# Procedure, shortened: as §1
# [10] = molecular target: GlcNAc(b1-3)[GlcNAc(b1-6)]Gal(b1-4)GlcNAc
# Procedure, shortened: as §1
# [11] = molecular target: GlcNAc(b1-3)[GlcNAc(b1-6)]GalNAc
# Procedure, shortened: as §1
# [12] = molecular target: GlcNAc(b1-4)Gal(b1-4)GlcNAc
# Procedure, shortened: as §1
# [13] = molecular target: GlcNAc(b1-4)GlcNAc
# Procedure, shortened: as §1
# [14] = molecular target: GlcNAc(b1-4)GlcNAc(b1-4)GlcNAc
# Procedure, shortened: as §1
# [15] = molecular target: GlcNAc(b1-4)GlcNAc(b1-4)GlcNAc(b1-4)GlcNAc(b1-4)GlcNAc
# Procedure, shortened: as §1
# [16] = molecular target: GlcNAc(b1-4)GlcNAc(b1-4)GlcNAc(b1-4)GlcNAc(b1-4)GlcNAc(b1-4)GlcNAc
# Procedure, shortened: as §1
# [17] = molecular target: GlcNAc(b1-4)[GlcNAc(b1-6)]GalNAc
# Procedure, shortened: as §1
# [18] = molecular target: GlcNAc(b1-6)Gal(b1-4)GlcNAc
# Procedure, shortened: as §1
# [19] = molecular target: GlcNAc(b1-6)GalNAc
# Procedure, shortened: as §1
# [20] = molecular target: GlcNAc6S(b1-3)Gal(b1-4)GlcNAc
# Procedure, shortened: as §1
# [21] = molecular target: Kdn(a2-3)Gal(b1-3)GalNAc
# Procedure, shortened: as §1
# [22] = molecular target: Kdn(a2-3)Gal(b1-3)GlcNAc
# Procedure, shortened: as §1
# [23] = molecular target: Kdn(a2-3)Gal(b1-4)Glc
# Procedure, shortened: as §1
# [24] = molecular target: Kdn(a2-3)Gal(b1-4)GlcNAc
# Procedure, shortened: as §1
# [25] = molecular target: Kdn(a2-3)Gal(b1-4)[Fuc(a1-3)]GlcNAc
# Procedure, shortened: as §1
# [26] = molecular target: Kdn(a2-6)Gal(b1-4)GlcNAc
# Procedure, shortened: as §1
# [27] = molecular target: Man(a1-2)Man(a1-2)Man(a1-3)Man
# Procedure, shortened: as §1
# [28] = molecular target: Man(a1-2)Man(a1-2)Man(a1-6)[Man(a1-3)]Man
# Procedure, shortened: as §1
# [29] = molecular target: Man(a1-2)Man(a1-3)Man
# Procedure, shortened: as §1
# [30] = molecular target: Man(a1-2)Man(a1-3)[Man(a1-2)Man(a1-6)]Man
# Procedure, shortened: as §1
# [31] = molecular target: Man(a1-2)Man(a1-3)[Man(a1-2)Man(a1-6)]Man(a1-6)[Man(a1-2)Man(a1-2)Man(a1-3)]Man
# Procedure, shortened: as §1
# [32] = molecular target: Man(a1-2)Man(a1-3)[Man(a1-2)Man(a1-6)]Man(a1-6)[Man(a1-2)Man(a1-2)Man(a1-3)]Man(b1-4)GlcNAc(b1-4)GlcNAc
# Procedure, shortened: as §1
# [33] = molecular target: Man(a1-2)Man(a1-3)[Man(a1-6)]Man(a1-6)[Man(a1-2)Man(a1-3)]Man(b1-4)GlcNAc(b1-4)GlcNAc
# Procedure, shortened: as §1
# [34] = molecular target: Man(a1-2)Man(a1-6)[Man(a1-3)]Man(a1-6)[Man(a1-2)Man(a1-2)Man(a1-3)]Man
# Procedure, shortened: as §1
# [35] = molecular target: Man(a1-2)Man(a1-6)[Man(a1-3)]Man(a1-6)[Man(a1-2)Man(a1-2)Man(a1-3)]Man(b1-4)GlcNAc(b1-4)GlcNAc
# Procedure, shortened: as §1
# [36] = molecular target: Man(a1-3)[Man(a1-6)]Man
# Procedure, shortened: as §1
# [37] = molecular target: Man(a1-3)[Man(a1-6)]Man(a1-6)[Man(a1-2)Man(a1-3)]Man(b1-4)GlcNAc(b1-4)GlcNAc
# Procedure, shortened: as §1
binder,measurement,setting,value
Nc3LysM-2 (protein) AHVLQARQSVSCDFATAANTGDTCASFAAAWGITEAAFAKLNPGVSCPGNLIAGSEYCVIGTVSTGAPTTTKAATTSTTPPTTTTTTKATTLSTSTTSVSPTGPSPQMPSITSTCNKFYQVQSGDGCWSIEQAQGVSASDFMAWNKAVDAQCDNLWLGYYVCVGVKGGSSPPPTTTTKPASSSAPTPQMPNTVSNCKKFHKVVSGDGCWAIEQAAGISASDFAKWNPYVDAACDNLWLGYYVCIGV,glycan array binding signal (z-score),[1],1.32
same,glycan array binding signal (z-score),[2],-0.769
same,glycan array binding signal (z-score),[3],-0.1
same,glycan array binding signal (z-score),[4],0.025
same,glycan array binding signal (z-score),[5],-1.18
same,glycan array binding signal (z-score),[6],-0.086
same,glycan array binding signal (z-score),[7],-0.615
same,glycan array binding signal (z-score),[8],-2.18
same,glycan array binding signal (z-score),[9],-1.77
same,glycan array binding signal (z-score),[10],-0.242
same,glycan array binding signal (z-score),[11],1.23
same,glycan array binding signal (z-score),[12],-1.05
same,glycan array binding signal (z-score),[13],0.212
same,glycan array binding signal (z-score),[14],0.414
same,glycan array binding signal (z-score),[15],3.61
same,glycan array binding signal (z-score),[16],1.01
same,glycan array binding signal (z-score),[17],0.138
same,glycan array binding signal (z-score),[18],-0.473
same,glycan array binding signal (z-score),[19],-0.378
same,glycan array binding signal (z-score),[20],-2.08
same,glycan array binding signal (z-score),[21],0.492
same,glycan array binding signal (z-score),[22],-0.45
same,glycan array binding signal (z-score),[23],0.699
same,glycan array binding signal (z-score),[24],1.91
same,glycan array binding signal (z-score),[25],-0.751
same,glycan array binding signal (z-score),[26],0.173
same,glycan array binding signal (z-score),[27],0.951
same,glycan array binding signal (z-score),[28],1.14
same,glycan array binding signal (z-score),[29],0.233
same,glycan array binding signal (z-score),[30],-0.882
same,glycan array binding signal (z-score),[31],-0.422
same,glycan array binding signal (z-score),[32],1.17
same,glycan array binding signal (z-score),[33],-1.14
same,glycan array binding signal (z-score),[34],-1.62
same,glycan array binding signal (z-score),[35],1.1
same,glycan array binding signal (z-score),[36],-1.26
same,glycan array binding signal (z-score),[37],-0.822

# 3 neighbouring entries already listed, quoted:
binder,measurement,setting,value
Nc3LysM-2 (protein) AHVLQARQSVSCDFATAANTGDTCASFAAAWGITEAAFAKLNPGVSCPGNLIAGSEYCVIGTVSTGAPTTTKAATTSTTPPTTTTTTKATTLSTSTTSVSPTGPSPQMPSITSTCNKFYQVQSGDGCWSIEQAQGVSASDFMAWNKAVDAQCDNLWLGYYVCVGVKGGSSPPPTTTTKPASSSAPTPQMPNTVSNCKKFHKVVSGDGCWAIEQAAGISASDFAKWNPYVDAACDNLWLGYYVCIGV,glycan array binding signal (z-score),[28],1.14
same,glycan array binding signal (z-score),[29],0.233
same,glycan array binding signal (z-score),[30],-0.882
